Results are given in words; binding and its absence hold for the method and conditions named. Binding seen in cells or lysates may run through a third protein. Some binding calls cover weakened binding; strength is not graded here. Values belong to the molecule of their own block, whether it stands above or below them.
Assays:
[1] = target: BRCA1 (human (endogenous in HeLa, HME and T98G)) (UniProt P38398); assay: co-IP; chromatin fractions of HeLa cells transfected or not with GFP-RNAse H1 24 h before collection; IPs of endogenous BRCA1, TRF2, TRF1 and POT1, immunoblot (Fig. 1e)
[2] = target: GST-tagged BRCA1 segment 1005-1313 aa (UniProt P38398); assay: pull-down; 2 μg of bead-bound GST-BRCA1 fusion proteins or GST beads only incubated with NETN 250 (250 mM NaCl) precleared HeLa whole-cell extracts; immunoblot for XRN2; only the target purified
[3] = target: TRF1 (human (endogenous in HeLa)) (UniProt P54274); assay: co-IP; chromatin fractions of HeLa cells transfected or not with GFP-RNAse H1 24 h before collection; IPs of endogenous BRCA1, TRF2, TRF1 and POT1, immunoblot (Fig. 1e)
[4] = target: T1, POT1 (human (endogenous in HeLa)) (UniProt Q9NUX5); assay: as above
T1 sequence: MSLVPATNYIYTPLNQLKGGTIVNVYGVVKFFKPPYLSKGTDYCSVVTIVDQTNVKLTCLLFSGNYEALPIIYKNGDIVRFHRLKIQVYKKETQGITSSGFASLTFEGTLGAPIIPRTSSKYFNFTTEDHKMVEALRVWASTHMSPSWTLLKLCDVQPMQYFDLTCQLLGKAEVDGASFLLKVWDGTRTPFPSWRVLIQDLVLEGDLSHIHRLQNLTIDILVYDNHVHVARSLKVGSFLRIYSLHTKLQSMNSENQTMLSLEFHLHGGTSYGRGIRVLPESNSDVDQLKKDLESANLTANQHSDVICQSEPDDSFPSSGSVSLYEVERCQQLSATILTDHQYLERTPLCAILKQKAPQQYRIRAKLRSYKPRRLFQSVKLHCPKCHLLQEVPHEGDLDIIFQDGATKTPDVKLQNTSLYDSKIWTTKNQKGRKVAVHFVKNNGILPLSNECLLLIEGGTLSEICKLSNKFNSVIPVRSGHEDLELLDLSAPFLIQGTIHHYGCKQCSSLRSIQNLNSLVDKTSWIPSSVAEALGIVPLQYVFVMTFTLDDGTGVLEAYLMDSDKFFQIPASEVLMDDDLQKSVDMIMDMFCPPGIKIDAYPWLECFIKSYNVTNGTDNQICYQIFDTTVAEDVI

The chains behind the UniProt entries cited, without tags or fusion partners.
UniProt P54274: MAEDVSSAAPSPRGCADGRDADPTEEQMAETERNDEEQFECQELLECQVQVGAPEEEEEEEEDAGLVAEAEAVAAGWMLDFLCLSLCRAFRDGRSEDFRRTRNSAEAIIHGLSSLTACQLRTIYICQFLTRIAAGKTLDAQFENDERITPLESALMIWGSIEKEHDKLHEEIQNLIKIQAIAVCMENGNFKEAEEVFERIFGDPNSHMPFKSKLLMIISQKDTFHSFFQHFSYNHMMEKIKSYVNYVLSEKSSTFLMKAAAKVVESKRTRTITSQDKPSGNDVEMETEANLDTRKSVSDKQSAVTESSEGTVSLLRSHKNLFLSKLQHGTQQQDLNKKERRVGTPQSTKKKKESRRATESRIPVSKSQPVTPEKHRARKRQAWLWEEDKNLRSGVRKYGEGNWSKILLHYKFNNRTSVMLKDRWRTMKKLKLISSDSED
UniProt Q7Z333: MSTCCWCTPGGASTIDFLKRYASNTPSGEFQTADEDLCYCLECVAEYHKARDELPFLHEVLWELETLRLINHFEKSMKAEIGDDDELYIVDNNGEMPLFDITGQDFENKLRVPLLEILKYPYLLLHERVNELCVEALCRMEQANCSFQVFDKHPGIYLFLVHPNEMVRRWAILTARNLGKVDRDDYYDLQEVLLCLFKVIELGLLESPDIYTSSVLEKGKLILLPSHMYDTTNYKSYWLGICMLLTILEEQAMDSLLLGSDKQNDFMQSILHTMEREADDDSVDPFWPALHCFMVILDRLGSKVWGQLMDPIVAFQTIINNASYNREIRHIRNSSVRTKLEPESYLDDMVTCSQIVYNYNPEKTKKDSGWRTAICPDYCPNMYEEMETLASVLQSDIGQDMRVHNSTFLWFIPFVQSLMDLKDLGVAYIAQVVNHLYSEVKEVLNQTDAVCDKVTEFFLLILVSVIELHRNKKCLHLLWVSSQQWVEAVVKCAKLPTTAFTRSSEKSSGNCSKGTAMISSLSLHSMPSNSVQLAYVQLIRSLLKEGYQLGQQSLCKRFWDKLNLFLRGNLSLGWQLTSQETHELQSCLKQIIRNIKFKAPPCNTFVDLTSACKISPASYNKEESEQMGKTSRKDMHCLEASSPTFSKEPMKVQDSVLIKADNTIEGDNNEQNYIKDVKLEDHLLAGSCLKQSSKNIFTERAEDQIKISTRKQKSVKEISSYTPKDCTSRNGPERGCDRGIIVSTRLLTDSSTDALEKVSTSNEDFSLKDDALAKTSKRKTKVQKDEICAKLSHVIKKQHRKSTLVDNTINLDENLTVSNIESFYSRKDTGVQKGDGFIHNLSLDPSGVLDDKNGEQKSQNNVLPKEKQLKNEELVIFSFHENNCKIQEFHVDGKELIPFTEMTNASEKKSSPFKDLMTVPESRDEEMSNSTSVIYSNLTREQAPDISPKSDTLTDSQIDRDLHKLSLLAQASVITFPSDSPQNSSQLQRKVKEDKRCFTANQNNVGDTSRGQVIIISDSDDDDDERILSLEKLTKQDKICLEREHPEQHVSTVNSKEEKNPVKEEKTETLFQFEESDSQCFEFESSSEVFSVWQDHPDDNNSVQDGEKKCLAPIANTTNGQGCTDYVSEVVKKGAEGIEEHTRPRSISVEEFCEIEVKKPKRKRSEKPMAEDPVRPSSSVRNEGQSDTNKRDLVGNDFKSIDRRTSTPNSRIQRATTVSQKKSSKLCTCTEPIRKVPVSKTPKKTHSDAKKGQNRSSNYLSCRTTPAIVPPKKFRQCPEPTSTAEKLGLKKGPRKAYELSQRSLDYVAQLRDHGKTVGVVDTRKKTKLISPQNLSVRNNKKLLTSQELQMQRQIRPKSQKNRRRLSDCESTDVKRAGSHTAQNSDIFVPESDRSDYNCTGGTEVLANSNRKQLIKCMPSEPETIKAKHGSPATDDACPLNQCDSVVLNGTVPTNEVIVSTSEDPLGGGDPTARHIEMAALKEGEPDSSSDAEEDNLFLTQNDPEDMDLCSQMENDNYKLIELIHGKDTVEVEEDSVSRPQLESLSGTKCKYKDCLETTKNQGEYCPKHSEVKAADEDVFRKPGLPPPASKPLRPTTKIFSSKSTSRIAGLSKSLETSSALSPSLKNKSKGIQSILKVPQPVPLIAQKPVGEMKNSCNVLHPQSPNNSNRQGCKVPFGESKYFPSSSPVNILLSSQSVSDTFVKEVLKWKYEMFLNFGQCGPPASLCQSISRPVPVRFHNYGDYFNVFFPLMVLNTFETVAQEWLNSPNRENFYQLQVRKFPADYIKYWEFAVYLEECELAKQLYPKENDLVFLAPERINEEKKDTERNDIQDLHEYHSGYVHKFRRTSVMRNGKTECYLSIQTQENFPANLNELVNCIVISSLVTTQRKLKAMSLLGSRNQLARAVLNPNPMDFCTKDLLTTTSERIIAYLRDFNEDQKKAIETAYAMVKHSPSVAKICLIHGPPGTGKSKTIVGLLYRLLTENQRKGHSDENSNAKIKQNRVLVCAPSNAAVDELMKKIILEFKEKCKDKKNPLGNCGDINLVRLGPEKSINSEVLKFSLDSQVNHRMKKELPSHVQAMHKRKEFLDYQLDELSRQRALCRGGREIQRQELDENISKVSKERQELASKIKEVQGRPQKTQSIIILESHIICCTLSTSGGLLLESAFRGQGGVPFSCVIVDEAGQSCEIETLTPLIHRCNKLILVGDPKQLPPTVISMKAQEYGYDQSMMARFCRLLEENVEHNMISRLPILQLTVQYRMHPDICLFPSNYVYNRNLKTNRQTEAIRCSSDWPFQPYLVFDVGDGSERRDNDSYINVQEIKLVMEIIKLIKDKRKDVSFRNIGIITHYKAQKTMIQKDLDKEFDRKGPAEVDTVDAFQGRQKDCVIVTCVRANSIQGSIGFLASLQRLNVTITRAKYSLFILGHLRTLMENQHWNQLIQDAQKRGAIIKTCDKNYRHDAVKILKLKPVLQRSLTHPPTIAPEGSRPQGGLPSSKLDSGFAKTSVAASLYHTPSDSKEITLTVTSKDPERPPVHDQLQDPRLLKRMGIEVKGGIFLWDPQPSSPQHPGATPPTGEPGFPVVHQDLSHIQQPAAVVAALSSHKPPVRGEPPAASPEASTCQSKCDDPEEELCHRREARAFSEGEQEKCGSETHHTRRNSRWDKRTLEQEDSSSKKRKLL

[5] = target: BRCA1 (human (endogenous in HeLa, HME and T98G)), P38398; assay: as above; settings: remark: other sources report otherwise

binding [1]: binds
Molecule: senataxin (SETX) (from UniProt Q7Z333 1-2677)

binding [2]: binds
binding [3]: binds
binding [4]: binds
B1: XRN2 (protein, UniProt Q9H0D6 1-950)
chain: MGVPAFFRWLSRKYPSIIVNCVEEKPKECNGVKIPVDASKPNPNDVEFDNLYLDMNGIIHPCTHPEDKPAPKNEDEMMVAIFEYIDRLFSIVRPRRLLYMAIDGVAPRAKMNQQRSRRFRASKEGMEAAVEKQRVREEILAKGGFLPPEEIKERFDSNCITPGTEFMDNLAKCLRYYIADRLNNDPGWKNLTVILSDASAPGEGEHKIMDYIRRQRAQPNHDPNTHHCLCGADADLIMLGLATHEPNFTIIREEFKPNKPKPCGLCNQFGHEVKDCEGLPREKKGKHDELADSLPCAEGEFIFLRLNVLREYLERELTMASLPFTFDVERSIDDWVFMCFFVGNDFLPHLPSLEIRENAIDRLVNIYKNVVHKTGGYLTESGYVNLQRVQMIMLAVGEVEDSIFKKRKDDEDSFRRRQKEKRKRMKRDQPAFTPSGILTPHALGSRNSPGSQVASNPRQAAYEMRMQNNSSPSISPNTSFTSDGSPSPLGGIKRKAEDSDSEPEPEDNVRLWEAGWKQRYYKNKFDVDAADEKFRRKVVQSYVEGLCWVLRYYYQGCASWKWYYPFHYAPFASDFEGIADMPSDFEKGTKPFKPLEQLMGVFPAASGNFLPPSWRKLMSDPDSSIIDFYPEDFAIDLNGKKYAWQGVALLPFVDERRLRAALEEVYPDLTPEETRRNSLGGDVLFVGKHHPLHDFILELYQTGSTEPVEVPPELCHGIQGKFSLDEEAILPDQIVCSPVPMLRDLTQNTVVSINFKDPQFAEDYIFKAVMLPGARKPAAVLKPSDWEKSSNGRQWKPQLGFNRDRRPVHLDQAAFRTLGHVMPRGSGTGIYSNAAPPPVTYQGNLYRPLLRGQAQIPKLMSNMRPQDSWRGPPPLFQQQRFDRGVGAEPLLPWNRMLQTQNAAFQPNQYQMLAGPGGYPPRRDDRGGRQGYPREGRKYPLPPPSGRYNWN

binding [5]: binds
B2: XRN2, Q9H0D6 1-950 (protein)
chain: B1 chain

Reference: article PMC8192922
